Measurements published in the supplement of paper PMC12823440, “Inhibitors supercharge kinase turnover through native proteolytic circuits” (Nature, 2025).
Structures can show the parent of a compound that is named as a salt. This is one part of the list. Hit calls seldom repeat between salt and free forms of one compound.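 Kinases were expressed as nanoluciferase fusions in K562 cells and luminescence was read every 4 h between 2 and 18 h as percent of control, DMSO set to 100% and a positive control to 0%. A time point counts as decreased when the signal drops significantly (2 sigma). The hit call is the authors' own, does not follow from the count of time points alone, and its rule is not shown.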

Amino acid sequences for entries named in this document (tags omitted). A change or cut given only in a name is not applied to a line headed by its entry.
UniProt P31749: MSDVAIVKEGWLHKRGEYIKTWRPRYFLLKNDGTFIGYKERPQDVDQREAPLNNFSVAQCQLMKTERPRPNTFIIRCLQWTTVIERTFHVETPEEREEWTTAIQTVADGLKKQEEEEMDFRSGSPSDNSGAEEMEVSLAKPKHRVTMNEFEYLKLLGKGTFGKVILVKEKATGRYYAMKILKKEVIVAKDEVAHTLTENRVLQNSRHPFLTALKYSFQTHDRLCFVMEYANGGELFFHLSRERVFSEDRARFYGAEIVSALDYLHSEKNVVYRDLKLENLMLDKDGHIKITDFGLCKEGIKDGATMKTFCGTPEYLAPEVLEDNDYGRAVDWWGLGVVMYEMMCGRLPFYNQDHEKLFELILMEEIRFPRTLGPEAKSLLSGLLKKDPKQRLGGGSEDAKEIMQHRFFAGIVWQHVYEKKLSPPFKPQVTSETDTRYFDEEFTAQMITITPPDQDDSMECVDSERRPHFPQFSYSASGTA

These molecules were tested against AKT1 (UniProt P31749) (assay: number of time points (of 5) at which kinase-Nluc abundance scored as decreased, DMSO-normalised (count); higher = more persistent destabilization). Conditions: K562; 2-18 h.

Structure (SMILES) | number of time points
O=C(Nc1ccccc1C(=O)NC1CCCCNC1=O)c1cc2ccccc2s1 (centres undefined) (10 µM) | 0
CCOc1cc(=O)[nH]cc1-c1ccc(CC(=O)Nc2cc(C(C)(C)C(F)(F)F)on2)c(F)c1 (10 µM) | 0
Cn1cnc2c(F)c(Nc3ccc(Br)cc3F)c(C(=O)NOCCO)cc21 [Binimetinib] (10 µM) | 0
Cc1ccc(NC(=O)N2CCN(c3nc(N)nc4sc(-c5cccnc5)nc34)CC2)cc1 [PI4KIII beta inhibitor 3] (10 µM) | 0
CC(C1CC1)n1cnc2c(NCc3cccc(C(F)(F)F)c3)nc(NCCN(C)C)nc21 (centres undefined) (10 µM) | 0
CCn1c(N)c(C(=O)NC)c(=O)c2ccc(C#CC(C)(O)COC)nc21 (centres undefined) (10 µM) | 0
N#Cc1cc(N2CCC(C(=O)N3N=CC[C@H]3c3cc(F)cc(F)c3)CC2)ncn1 (10 µM) | 0
CN1CCN(Cc2ccc(-c3cn(C4CCC(O)CC4)c4nc(NCCC5CC5)ncc34)cc2)CC1 (centres undefined) (2.5 µM) | 0
COc1ccc(Cl)cc1N(CC(=O)Nc1ccc2c(c1)OCO2)S(=O)(=O)c1ccccc1 (2.5 µM) | 0
CS[C@@]1(C(=O)Nc2ccc3[nH]nc(-c4ccc(OC(C)C)nc4)c3c2)CCN(CC(=O)N2CC=C(c3ccc(-c4ncn(C)n4)cc3)CC2)C1 (2.5 µM) | 0
CCc1cc(Nc2nccc(-c3c(-c4ccc(OC)c(C(=O)Nc5c(F)cccc5F)c4)nc4ccccn34)n2)c(OC)cc1N1CCC(N2CCN(S(C)(=O)=O)CC2)CC1 (2.5 µM) | 0
O=C(O)/C=C(\CCc1ccc(Cl)cc1)c1ccccc1 (10 µM) | 0
Cc1cccc(CC(=O)N2CCc3c2ccc(-c2cn(C)c4ncnc(N)c24)c3F)n1 (10 µM) | 0
CN(C)CCn1cc2cc(NC(=O)c3cccc(C(F)(F)F)n3)c(C(C)(C)O)cc2n1 (10 µM) | 0
Cc1cc(N2CCOCC2)ccc1Nc1nc(NC2CCCCC2)c2[nH]cnc2n1 (10 µM) | 0
COc1c(Nc2ncc(Cl)c(N[C@H]3[C@@H](C(N)=O)[C@@H]4C=C[C@H]3C4)n2)ccc2c1CC[C@@H](N1CCOCC1)CC2 (10 µM) | 0
COc1cc2ncnc(Nc3cc(Br)c(O)c(Br)c3)c2cc1OC (2.5 µM) | 0
Cc1cncc2cccc(S(=O)(=O)N3CCCNC[C@@H]3C)c12 [H-1152 (dihydrochloride)] (10 µM) | 0
Nc1ccc(O)c(C(=O)O)c1 [5-Aminosalicylic Acid] (10 µM) | 0
CC(C)(C)S(=O)(=O)c1cc2c(Nc3ccc4scnc4c3)ncnc2cc1OCCOP(=O)(O)O (2 µM) | 0

Structure (SMILES) | number of time points
CC(C)(CCCCCC(O)CCCCCC(C)(C)C(=O)O)C(=O)O [Bempedoic acid] (10 µM) | 0
Cc1n[nH]c2ncc(C(=O)N3CCC[C@H]3c3ccc(Cl)cc3)cc12 (10 µM) | 0
CCOC(=O)c1c(Nc2ccccc2Cl)oc(/C=C2\C=Nc3ncccc32)c1O (10 µM) | 0
O=C(CCl)c1c[nH]c2ccccc12 (2.5 µM) | 0
O=C(Nc1ccc(F)cc1F)C(NC(=S)Nc1cc(C(F)(F)F)cc(C(F)(F)F)c1)c1ccccc1 (racemic) (2.5 µM) | 0
COc1cc2nc(NC3CC3)nc(NC3CCN(C(C)C)CC3)c2cc1OC (10 µM) | 0
C=CC(=O)Nc1cc(Nc2nccc(-c3cn(C)c4ccccc34)n2)c(OCC(F)(F)F)nc1N(C)CCNC [AST5902  (trimesylate)] (2.5 µM) | 0
CN(C)c1cc[n+](Cc2ccc(OCCOc3ccc(C[n+]4ccc(N(C)C)cc4)cc3)cc2)cc1 (10 µM) | 0
COc1cc(N2CCC(O)CC2)ccc1Nc1nc(Nc2ccccc2S(=O)(=O)C(C)C)c2[nH]cnc2n1 (10 µM) | 0
Cc1cccc(-c2nn3c(c2-c2ccnc4ccc(C(N)=O)cc24)CCC3)n1 [Galunisertib] (10 µM) | 0
C[C@@H]1COC(Nc2ccc3ncnc(Nc4ccc(OCc5nccs5)c(Cl)c4)c3c2)=N1 [Varlitinib] (10 µM) | 0
CS(=O)(=O)c1ccc([C@@H](CC2CCCC2)C(=O)Nc2nccs2)cc1 (10 µM) | 0
S=C(NCc1ccc2c(c1)OCO2)N1CCN(c2ncnc3c2oc2ccccc23)CC1 [Amuvatinib] (2.5 µM) | 0
CCC(F)(F)c1cc(N2CCC(S(C)(=O)=O)CC2)nc2sc(C(N)=O)c(N)c12 (10 µM) | 0
O=c1cc(N2CCOCC2)oc2c(-c3cccc4c3sc3ccccc34)cccc12 (10 µM) | 0
N#Cc1cnc(Nc2cc(NC[C@H]3CNCCO3)c(C(F)(F)F)cn2)cn1 (10 µM) | 0
Nc1ccc(C(=O)Nc2cccc(-c3nc(N4CCOCC4)c4oc5ncccc5c4n3)c2)cn1 (10 µM) | 0
COc1cc(N2CCC(N3CCN(C)CC3)CC2)ccc1Nc1ncnc(Nc2ccccc2S(=O)(=O)C(C)C)n1 (10 µM) | 0
CO[C@@H]1[C@H](N(C)C(=O)c2ccccc2)C[C@H]2O[C@]1(C)n1c3ccccc3c3c4c(c5c6ccccc6n2c5c31)C(=O)NC4 [Midostaurin] (2.5 µM) | 0

2 entries from above, set out differently:
O=C(CCl)c1c[nH]c2ccccc12 (2.5 µM)
  number of time points: 0
O=C(Nc1ccc(F)cc1F)C(NC(=S)Nc1cc(C(F)(F)F)cc(C(F)(F)F)c1)c1ccccc1 (racemic) (2.5 µM)
  number of time points: 0
